Experimental data reported in patent US7384912B2, “Treatment of bone disorders with skeletal anabolic drugs” (Osteotrophin, LLC, priority 2002, dated 2008).
For part of these data: Not every detail of the peptide structures is certain; ends, links or a residue may be inferred. Marks after values point to notes of the source that are not given here. For part of these data: At least one structure is not confirmed: it was looked up by name or label, or the drawing left a doubt. No end group written: not given here.

Key:
[1] = target: T1, PTH/PTHrP receptors in human renal cortical membranes (RCM) (Homo sapiens, UniProt Q03431); experiment: Competition binding of 125I-(Tyr36)hPTHrP-(1-36)NH2 to human renal cortical membranes; details: 30° C., 30 min, read-out: Binding (IC50) Kidney membranes
T1 sequence (Q03431 27-593): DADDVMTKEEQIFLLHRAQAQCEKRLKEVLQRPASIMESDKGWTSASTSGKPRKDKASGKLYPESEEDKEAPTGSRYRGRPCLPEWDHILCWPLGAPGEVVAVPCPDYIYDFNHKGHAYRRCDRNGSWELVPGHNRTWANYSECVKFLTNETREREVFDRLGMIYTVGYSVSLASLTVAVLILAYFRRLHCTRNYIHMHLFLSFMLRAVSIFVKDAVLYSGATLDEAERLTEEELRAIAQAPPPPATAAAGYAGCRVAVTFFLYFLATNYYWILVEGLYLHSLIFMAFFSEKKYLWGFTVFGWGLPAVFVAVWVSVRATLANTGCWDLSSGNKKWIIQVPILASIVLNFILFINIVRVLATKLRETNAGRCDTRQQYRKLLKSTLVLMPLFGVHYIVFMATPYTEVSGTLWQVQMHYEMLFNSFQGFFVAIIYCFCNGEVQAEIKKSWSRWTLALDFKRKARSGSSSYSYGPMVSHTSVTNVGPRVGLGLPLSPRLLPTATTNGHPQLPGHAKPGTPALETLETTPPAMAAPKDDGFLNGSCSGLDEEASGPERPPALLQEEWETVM
Protocol: All steps were performed in the presence of the following protease inhibitors: aprotinin [10 Kallikrein inhibitor units (KIU/ml], pepstatin (5 μg/ml), leupeptin (45 μg/ml), and phenylmethanesulfanylfluoride (10 μg/ml). Normal human kidney cortex was from four separate nephrectomy specimens removed for localized transitional cell carcinoma, renal cell carcinoma, or benign cysts. Renal function in all individuals was normal as assessed by serum creatinine and pyelography. Membranes were pooled, aliquoted, and stored at −70° C. for later use.
Human RCM were added to a final concentration of 90 μg/ml. […] The incubation time of 30 min was used for subsequent equilibrium binding competition studies.
(§1) Statistical differences were assessed by paired and unpaired two-tailed Student's t test.

[2] = test system: adenylate cyclase in SaOS-2 membranes; experiment: Adenylate cyclase assay in SaOS-2 cell membranes; assay type: biochemical, human; details: 30° C., 30 min
Protocol: Therefore, dose response curves for each peptide were generated at 30° C. for 10 min in human kidney and 30° C. for 30 min in SaOS-2 membranes. As with the intact cell adenylate cyclase assays, kidney and bone cell membrane adenlyate cyclase assays were performed under binding assay conditions. Results are expresses as percentage of maximal cAMP stimulation in order to compare peptide dose responses from different experiments.
as §1

[3] = test system: adenylate cyclase in SaOS-2 intact cells; experiment: Adenylate cyclase assay in SaOS-2 intact cells; assay type: cell-based, human; details: 15° C., 60 min
Protocol: Adenylate cyclase-stimulating activity was examined in confluent SAOS-2 cells as previously described for ROS 17/2.8 cells (Merendino et al., Science 231:388-390, (1986)), with the following modification. The intact cell assay was conducted at 15° C., the same conditions employed for binding to intact SaOS-2 cells (vide supra). […] Dose response curves for each peptide were thus generated using 60 min incubations at 15° C. under binding assay conditions.
as §1

[4] = test system: ovariectomized (OVX) rats; experiment: Bone histomorphometry of the right proximal tibia in ovariectomized rats; assay type: in vivo, rat; details: for Apposition Rate MAR / Bone Formation Rate BFR/BS / Mineralizing Surface MS/BS / Osteoclast Surface Oc.PM / Resorbing Surface E.PM / Trabecular Area Tb.A. / Trabecular Space Tb.Sp. / Trabecular Thickness Tb.Th.: 40 μg/kg/day s.c. once daily
[5] = test system: ovariectomized (OVX) rats; experiment: Bone mass measurements in ovariectomized rats; assay type: in vivo, rat; set-up: Left Femur Length: unit not given here; details: 40 μg/kg/day s.c. once daily

CCCC[C@H](NC(=O)[C@H](CO)NC(=O)[C@H](CC(N)=O)NC(=O)[C@H](CC(C)C)NC(=O)[C@H](Cc1c[nH]cn1)NC(=O)[C@H](CCCCN)NC(=O)CNC(=O)[C@H](CC(C)C)NC(=O)[C@H](CC(N)=O)NC(=O)[C@H](Cc1c[nH]cn1)NC(=O)[C@H](CCCC)NC(=O)[C@H](CC(C)C)NC(=O)[C@H](CCC(N)=O)NC(=O)[C@@H](NC(=O)[C@H](CCC(=O)O)NC(=O)[C@H](CO)NC(=O)[C@@H](NC(=O)[C@@H](N)CO)C(C)C)[C@@H](C)CC)C(=O)N[C@@H](CCC(=O)O)C(=O)N[C@@H](CCCNC(=N)N)C(=O)N[C@H](C(=O)N[C@@H](CCC(=O)O)C(=O)N[C@@H](Cc1c[nH]c2ccccc12)C(=O)N[C@@H](CC(C)C)C(=O)N[C@@H](CCCNC(=N)N)C(=O)N[C@@H](CCCCN)C(=O)N[C@@H](CCCCN)C(=O)N[C@@H](CC(C)C)C(=O)N[C@@H](CCC(N)=O)C(=O)N[C@@H](CC(=O)O)C(=O)N[C@H](C(=O)N[C@@H](Cc1c[nH]cn1)C(=O)N[C@@H](CC(N)=O)C(=O)N[C@@H](Cc1ccc(O)cc1)C(=O)O)C(C)C)C(C)C [(Nle^8,18Tyr^34)hPTH-(1-34), (Nle^8,18, Tyr^34)hPTH-(1-34)]
IC50 [1]: 3.6 ± 0.7 nM

AVSEHQLLHDKGKSIQDLRRRIFLQNLIEGVNTAEY-NH2 [(Tyr^36)cPTHrP-(1-36)NH2, (Tyr^36) chicken (c)PTHrP-(1-36)amide]
EC50 [2]: 0.87 ± 0.34 nM
EC50 [3]: 0.8 ± 0.1 nM

SVSEIQLLHDKGKHLASQERVEWLRKKLQDVHTA [SDZ PTH 893, Leu^8, Asp^10, Lys^11, Ala^16, Gln^18, Thr^33, Ala^34hPTH(1-34)]
Apposition Rate MAR ([4]; 30 days): 2.6 ± 0.1 μm/d
Bone Formation Rate BFR/BS ([4]; 30 days): 1.42 ± 8^a,b,c μm/d
Mineralizing Surface MS/BS ([4]; 30 days): 56 ± 3^a,c %
Osteoclast Surface Oc.PM ([4]; 30 days): 1.6 ± 0.6^a %
Resorbing Surface E.PM ([4]; 30 days): 7.1 ± 1.3^a %
Trabecular Area Tb.A. ([4]; 30 days): 23 ± 3^a %
Trabecular Space Tb.Sp. ([4]; 30 days): 348 ± 42^a,c Φm
Trabecular Thickness Tb.Th. ([4]; 30 days): 93 ± 4^a,c Φm
Apposition Rate MAR ([4]; 90 days): 3.3 ± 0.2^a,c μm/d
Bone Formation Rate BFR/BS ([4]; 90 days): 1.45 ± 10^a,c μm/d
Mineralizing Surface MS/BS ([4]; 90 days): 44 ± 2^a,c %
Osteoclast Surface Oc.PM ([4]; 90 days): 2.0 ± 0.7%
Resorbing Surface E.PM ([4]; 90 days): 10.0 ± 1.3%
Trabecular Area Tb.A. ([4]; 90 days): 50 ± 5^a,c %
Trabecular Space Tb.Sp. ([4]; 90 days): 210 ± 23^a Φm
Trabecular Thickness Tb.Th. ([4]; 90 days): 205 ± 20^a,c Φm
Apposition Rate MAR ([4]; 180 days): 3.2 ± 0.2^c μm/d
Bone Formation Rate BFR/BS ([4]; 180 days): 1.43 ± 9^a,c μm/d
Mineralizing Surface MS/BS ([4]; 180 days): 45 ± 3^a,c %
Osteoclast Surface Oc.PM ([4]; 180 days): 0.4 ± 0.3^b %
Resorbing Surface E.PM ([4]; 180 days): 3.0 ± 1.0%
Trabecular Area Tb.A. ([4]; 180 days): 57 ± 4^a,c %
Trabecular Space Tb.Sp. ([4]; 180 days): 139 ± 26^a,b,c Φm
Trabecular Thickness Tb.Th. ([4]; 180 days): 183 ± 20^a,c Φm
bone in the right proximal tibia, photomicrographs ([4]; 90 days of treatment): not only restores lost bone but significantly increases trabecular bone volume over Sham
Left Femur BMC ([5]; 30 days): 0.361 ± 0.009^a,c
Left Femur BMD ([5]; 30 days): 0.210 ± 0.002^a,b,c
Left Femur Length ([5]; 30 days): 34.9 ± 0.3
Left Femur X Area ([5]; 30 days): 1.73 ± 0.04^a,c
Radius Ash Weight ([5]; 30 days): 62 ± 1^a,c mg
Whole Body BMC ([5]; 30 days): 67 ± 2^c
Left Femur BMC ([5]; 90 days): 0.442 ± 0.006^a,c
Left Femur BMD ([5]; 90 days): 0.242 ± 0.003^a,c
Left Femur Length ([5]; 90 days): 35.7 ± 0.2^c
Left Femur X Area ([5]; 90 days): 1.82 ± 0.02^a,b,c
Radius Ash Weight ([5]; 90 days): 69 ± 1^a,c mg
Whole Body BMC ([5]; 90 days): 70 ± 2^c
Left Femur BMC ([5]; 180 days): 0.530 ± 0.018^a,c
Left Femur BMD ([5]; 180 days): 0.273 ± 0.005^a,c
Left Femur Length ([5]; 180 days): 36.4 ± 0.3^c
Left Femur X Area ([5]; 180 days): 1.96 ± 0.05^a,c
Radius Ash Weight ([5]; 180 days): 78 ± 3^a,c mg
Whole Body BMC ([5]; 180 days): 68 ± 3^c

SVSEMQLMHNLGEHRHTVERQDWLQMKLQDVHSA-NH2 [cPTH-(1-34)NH2, Chicken PTH-(1-34)amide]
EC50 [2]: 16.3 ± 4.8 nM
EC50 [3]: 3.9 ± 0.1 nM
